Reference: publication PMC11790958, “Molecular mechanism of condensin I activation by KIF4A” (The EMBO Journal, 2024)

Legend:
[1] = system: condensin I pentamer (CI, wild type) (Homo sapiens); test: EMSA; conditions: 2.5 mM Mg2+; EMSA: 50 nM DNA, 20 mM HEPES pH 8, 150 mM KCl, 2.5 mM MgCl2, 10% glycerol, 1 mM DTT, on ice 20 min; 2% agarose, 0.5x TB; recombinant protein; protein details: Strep; label: 5' Cy5 on reverse strand (S2)
[2] = system: condensin I tetramer lacking NCAPD2 (CIΔD2) (Homo sapiens); test: EMSA; conditions: 2.5 mM Mg2+, minimal reduction, higher shifted band (may multimerise); EMSA: 50 nM DNA, 20 mM HEPES pH 8, 150 mM KCl, 2.5 mM MgCl2, 10% glycerol, 1 mM DTT, on ice 20 min; 2% agarose, 0.5x TB; recombinant protein; protein details: Strep; label: 5' Cy5 on reverse strand (S2)

GGTGTGACAGGGTGTGACAGGGTGTGACAGGGTGTGACAGGGTGTGACAG (double strand) [Cy5 50 bp dsDNA]
binding result [1]: binds | binding result [2]: binds more weakly

The exact form of at least one protein or probe is not confirmed. For some assays here: A weaker result is weaker than the reference pair of the same experiment. For some assays here: At least one verdict rests on a figure or table, not on a statement of the authors.
